Reference: patent publication US20250228855A1, “PYRAZINAMIDE COMPOUNDS” (The General Hospital Corporation, priority 2022, published 2025)

Tested on: P. falciparum Dd2-2D4
Assay: NCP26 resistance susceptibility and resistance selection
Type: cell-based, Plasmodium falciparum

O=C(NC1Cc2ccccc2C1)c1nccnc1NC(=O)N1CCCCC1 [NCP26 (3), N-(2,3-dihydro-1H-inden-2-yl)-3-(piperidine-1-carboxamido)pyrazine-2-carboxamide]
timeframe for resistance to arise (in vitro selection, 4×EC50, large population size): > 50 generations
induction of rapid resistance (wild-type parasites, intermittent drug pressure): did not induce rapid resistance
